In paper PMC6127343:
These are yes or no findings as the source states them, for the method shown. Binding seen in cells or lysates may run through a third protein. Some binding calls cover weakened binding; strength is not graded here.

Chains of the proteins cited; added tags and fusions are not shown. Residues count along the entry.
UniProt P02545, residues 1-646: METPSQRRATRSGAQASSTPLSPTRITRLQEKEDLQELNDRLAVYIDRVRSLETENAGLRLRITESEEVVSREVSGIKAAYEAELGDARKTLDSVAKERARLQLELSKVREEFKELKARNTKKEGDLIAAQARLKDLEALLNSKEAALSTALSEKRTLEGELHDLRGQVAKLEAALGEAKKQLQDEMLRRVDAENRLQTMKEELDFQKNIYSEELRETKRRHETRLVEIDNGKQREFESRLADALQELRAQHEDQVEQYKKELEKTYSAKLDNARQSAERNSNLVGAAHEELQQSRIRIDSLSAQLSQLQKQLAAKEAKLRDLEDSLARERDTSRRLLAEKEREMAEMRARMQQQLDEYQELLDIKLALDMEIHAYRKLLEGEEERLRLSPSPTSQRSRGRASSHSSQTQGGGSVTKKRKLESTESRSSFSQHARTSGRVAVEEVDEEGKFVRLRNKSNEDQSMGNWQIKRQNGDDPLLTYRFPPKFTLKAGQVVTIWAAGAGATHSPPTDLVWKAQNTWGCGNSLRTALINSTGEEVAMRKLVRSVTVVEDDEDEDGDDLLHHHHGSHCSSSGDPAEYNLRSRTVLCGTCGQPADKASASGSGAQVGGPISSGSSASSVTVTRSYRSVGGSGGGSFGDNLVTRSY
UniProt P48681: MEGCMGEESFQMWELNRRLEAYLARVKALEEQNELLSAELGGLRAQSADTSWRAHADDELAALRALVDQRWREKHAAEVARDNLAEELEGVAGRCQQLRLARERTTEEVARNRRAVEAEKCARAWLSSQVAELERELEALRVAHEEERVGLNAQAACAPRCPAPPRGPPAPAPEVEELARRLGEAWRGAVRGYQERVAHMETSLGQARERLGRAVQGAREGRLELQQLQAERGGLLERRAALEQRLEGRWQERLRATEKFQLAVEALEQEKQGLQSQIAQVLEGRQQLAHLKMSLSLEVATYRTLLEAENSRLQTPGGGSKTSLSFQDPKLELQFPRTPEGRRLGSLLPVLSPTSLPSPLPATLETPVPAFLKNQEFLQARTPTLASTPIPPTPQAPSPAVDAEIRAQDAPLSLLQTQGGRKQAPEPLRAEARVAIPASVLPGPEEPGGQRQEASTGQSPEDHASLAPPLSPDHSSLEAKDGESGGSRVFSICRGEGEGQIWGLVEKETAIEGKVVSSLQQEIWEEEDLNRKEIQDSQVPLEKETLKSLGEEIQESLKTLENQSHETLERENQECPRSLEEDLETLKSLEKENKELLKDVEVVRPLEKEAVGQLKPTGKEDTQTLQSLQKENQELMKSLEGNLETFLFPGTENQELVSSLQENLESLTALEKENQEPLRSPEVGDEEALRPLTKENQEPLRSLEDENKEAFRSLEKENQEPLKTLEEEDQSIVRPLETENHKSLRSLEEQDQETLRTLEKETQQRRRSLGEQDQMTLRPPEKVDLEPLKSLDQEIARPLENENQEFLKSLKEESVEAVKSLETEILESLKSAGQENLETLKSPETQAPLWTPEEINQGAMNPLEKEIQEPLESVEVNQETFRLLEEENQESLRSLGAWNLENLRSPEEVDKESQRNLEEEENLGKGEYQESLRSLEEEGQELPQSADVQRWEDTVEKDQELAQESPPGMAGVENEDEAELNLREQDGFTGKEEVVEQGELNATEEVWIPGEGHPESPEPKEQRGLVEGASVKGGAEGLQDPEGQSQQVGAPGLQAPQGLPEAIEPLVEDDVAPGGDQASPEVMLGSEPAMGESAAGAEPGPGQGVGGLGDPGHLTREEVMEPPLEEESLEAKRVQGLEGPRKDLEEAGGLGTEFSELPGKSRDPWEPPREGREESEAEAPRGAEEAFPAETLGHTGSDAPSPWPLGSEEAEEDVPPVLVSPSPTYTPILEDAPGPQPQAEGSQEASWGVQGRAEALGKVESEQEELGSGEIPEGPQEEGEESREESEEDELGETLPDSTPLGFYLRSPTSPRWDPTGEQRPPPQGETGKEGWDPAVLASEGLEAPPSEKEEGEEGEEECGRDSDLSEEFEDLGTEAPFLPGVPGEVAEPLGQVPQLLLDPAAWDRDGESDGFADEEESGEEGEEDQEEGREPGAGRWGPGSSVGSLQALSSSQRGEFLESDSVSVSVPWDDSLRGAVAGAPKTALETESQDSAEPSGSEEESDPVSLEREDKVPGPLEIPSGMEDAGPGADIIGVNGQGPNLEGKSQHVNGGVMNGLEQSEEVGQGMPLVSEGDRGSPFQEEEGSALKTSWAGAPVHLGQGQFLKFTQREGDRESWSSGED

Experiments:
[1] = target: lamin A/C (human (endogenous in A549, H1299 and HEK293T)) (UniProt P02545); test: co-IP; anti-lamin A/C immunoprecipitation of endogenous proteins from A549 and H1299 lysates; Pierce IP lysis buffer, overnight at 4 °C, Dynabeads Protein G; blot for Nestin
Flag-tagged Nestin = Flag-tagged Nestin (UniProt P48681); test: co-IP; anti-Flag immunoprecipitation from lysates of A549 and H1299 cells overexpressing Flag-Nestin; Pierce IP lysis buffer, overnight at 4 °C, Dynabeads Protein G; blot for lamin A/C; IgG as negative control

Row | binding [1] | binding (Flag-tagged Nestin) | Substance
1 | binds | – | Nestin (endogenous) (from UniProt P48681 1-1621)
2 | – | binds | lamin A/C (from UniProt P02545 1-646)
